Where a name gives a salt, the structure may show the parent alone.
Test: Drug promiscuity: percent of PubChem BioAssay assays reported as active
Conditions: percent of BioAssay database assays reported as active (promiscuity)

Row | Molecule | Active (%)
1 | CC(C)(C)C(=O)OCOP(=O)(COCCn1cnc2c(N)ncnc21)OCOC(=O)C(C)(C)C [Adefovir Dipivoxil (Preveon)] | 22.7
2 | CCCSc1ccc2nc(NC(=O)OC)[nH]c2c1 [Albendazole (Albenza)] | 9.3
3 | C=C1/C(=C\C=C2/CCC[C@]3(C)[C@@H]([C@H](C)CCCC(C)(C)O)CC[C@@H]23)C[C@@H](O)C[C@@H]1O [Calcitriol (Rocaltrol)] | 15.2
4 | O=C1CCc2cc(OCCCCc3nnnn3C3CCCCC3)ccc2N1 [Cilostazol] | 2.5
5 | COc1cc(/C=C/C(=O)CC(=O)/C=C/c2ccc(O)c(OC)c2)ccc1O [Curcumin] | 29.7
6 | O=c1[nH]cnc2c1ncn2[C@H]1CC[C@@H](CO)O1 [Didanosine (Videx)] | 5.7
7 | CC/C(=C(/CC)c1ccc(O)cc1)c1ccc(O)cc1 [Diethylstilbestrol (Stilbestrol)] | 7.2
8 | Nc1nc(=O)n([C@@H]2CS[C@H](CO)O2)cc1F [Emtricitabine (Emtriva)] | 9.3
9 | CCn1cc(C(=O)O)c(=O)c2cc(F)c(N3CCNCC3)nc21 [Enoxacin (Penetrex)] | 1.9
10 | COC(=O)[C@@H]1CC2=CC(=O)CC[C@]2(C)[C@@]23O[C@@H]2C[C@@]2(C)[C@@H](CC[C@@]24CCC(=O)O4)[C@H]13 [Eplerenone] | 5.9
11 | CC(O)(P(=O)(O)O)P(=O)(O)O [Etidronate (Didronel)] | 1.1
12 | Nc1ccn([C@@H]2O[C@H](CO)[C@@H](O)C2(F)F)c(=O)n1 [Gemcitabine (Gemzar)] | 46.7
13 | Cc1cnc(C(=O)NCCc2ccc(S(=O)(=O)NC(=O)NC3CCCCC3)cc2)cn1 [Glipizide (Glucotrol)] | 0.5
14 | COc1ccc2c(c1)c(CC(=O)O)c(C)n2C(=O)c1ccc(Cl)cc1 [Indomethacin] | 6.6
15 | O=NN(CCCl)C(=O)NC1CCCCC1 [Lomustine (CeeNU)] | 16.1
16 | COc1ccc2[nH]cc(CCNC(C)=O)c2c1 [Melatonin] | 8.2
17 | COC(=O)C1=C(C)NC(C)=C(C(=O)OC)C1c1ccccc1[N+](=O)[O-] [Nifedipine (Adalat)] | 11.5
18 | NC(=O)N1c2ccccc2CC(=O)c2ccccc21 [Oxcarbazepine] | 1.3
19 | CCCCC1C(=O)N(c2ccccc2)N(c2ccccc2)C1=O [Phenylbutazone] | 1.5
20 | COc1cc2nc(N3CCN(C(=O)c4ccco4)CC3)nc(N)c2cc1OC [Prazosin HCl] | 6.3
21 | CO[C@H]1/C=C/O[C@@]2(C)Oc3c(C)c(O)c4c(c3C2=O)C2=NC3(CCN(CC(C)C)CC3)NC2=C(NC(=O)/C(C)=C\C=C\[C@H](C)[C@H](O)[C@@H](C)[C@@H](O)[C@@H](C)[C@H](OC(C)=O)[C@@H]1C)C4=O [Rifabutin (Mycobutin)] | 12.0
22 | CO[C@H]1/C=C/O[C@@]2(C)Oc3c(C)c(O)c4c(O)c(c(/C=N/N5CCN(C)CC5)c(O)c4c3C2=O)NC(=O)/C(C)=C\C=C\[C@H](C)[C@H](O)[C@@H](C)[C@@H](O)[C@@H](C)[C@H](OC(C)=O)[C@@H]1C [Rifampin] | 11.0
23 | C[C@]12C=CC(=O)C=C1CC[C@H]1[C@@H]3C[C@@H](O)[C@](O)(C(=O)CO)[C@@]3(C)C[C@H](O)[C@@]12F [Triamcinolone (Aristocort)] | 2.7
24 | Doripenem hydrate | 1.4
25 | Meropenem | 1.3

Source: patent publication US20260345555A1, “Compositions and Methods for Protecting Salivary Glands from Off-Target Radiation Damage” (University of Rochester, priority 2022, published 2026)
